Measured values taken from article doi:10.1101/2023.03.08.531807.
No constants are given. Whether binding was seen depends on the method and setting. Binding seen in cells or lysates may run through a third protein. Some entries that bind do so weakly or less than the wild type.

Chains of the proteins cited; added tags and fusions are not shown. Residues count along the entry.
UniProt Q8IWT6: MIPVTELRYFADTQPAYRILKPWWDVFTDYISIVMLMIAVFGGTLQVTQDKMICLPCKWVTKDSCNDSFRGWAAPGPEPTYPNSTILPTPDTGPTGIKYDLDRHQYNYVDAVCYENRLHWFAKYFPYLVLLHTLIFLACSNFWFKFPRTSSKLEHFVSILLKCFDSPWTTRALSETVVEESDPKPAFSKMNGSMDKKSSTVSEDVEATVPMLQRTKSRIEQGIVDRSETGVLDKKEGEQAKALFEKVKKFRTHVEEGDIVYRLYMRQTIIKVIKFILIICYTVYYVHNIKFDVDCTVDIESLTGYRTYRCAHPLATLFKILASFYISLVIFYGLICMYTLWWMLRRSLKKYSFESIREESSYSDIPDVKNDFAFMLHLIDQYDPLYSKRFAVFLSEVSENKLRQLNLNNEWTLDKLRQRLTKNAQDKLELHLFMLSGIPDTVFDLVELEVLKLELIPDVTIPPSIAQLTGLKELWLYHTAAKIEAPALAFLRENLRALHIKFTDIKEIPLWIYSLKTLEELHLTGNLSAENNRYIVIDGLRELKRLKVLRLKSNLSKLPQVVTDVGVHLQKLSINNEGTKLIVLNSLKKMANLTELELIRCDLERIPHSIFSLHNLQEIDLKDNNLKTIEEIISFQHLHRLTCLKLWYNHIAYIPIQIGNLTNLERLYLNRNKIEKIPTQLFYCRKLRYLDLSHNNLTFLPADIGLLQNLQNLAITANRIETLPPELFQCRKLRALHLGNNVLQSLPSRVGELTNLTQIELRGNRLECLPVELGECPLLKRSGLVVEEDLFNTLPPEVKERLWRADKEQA
UniProt Q80WG5: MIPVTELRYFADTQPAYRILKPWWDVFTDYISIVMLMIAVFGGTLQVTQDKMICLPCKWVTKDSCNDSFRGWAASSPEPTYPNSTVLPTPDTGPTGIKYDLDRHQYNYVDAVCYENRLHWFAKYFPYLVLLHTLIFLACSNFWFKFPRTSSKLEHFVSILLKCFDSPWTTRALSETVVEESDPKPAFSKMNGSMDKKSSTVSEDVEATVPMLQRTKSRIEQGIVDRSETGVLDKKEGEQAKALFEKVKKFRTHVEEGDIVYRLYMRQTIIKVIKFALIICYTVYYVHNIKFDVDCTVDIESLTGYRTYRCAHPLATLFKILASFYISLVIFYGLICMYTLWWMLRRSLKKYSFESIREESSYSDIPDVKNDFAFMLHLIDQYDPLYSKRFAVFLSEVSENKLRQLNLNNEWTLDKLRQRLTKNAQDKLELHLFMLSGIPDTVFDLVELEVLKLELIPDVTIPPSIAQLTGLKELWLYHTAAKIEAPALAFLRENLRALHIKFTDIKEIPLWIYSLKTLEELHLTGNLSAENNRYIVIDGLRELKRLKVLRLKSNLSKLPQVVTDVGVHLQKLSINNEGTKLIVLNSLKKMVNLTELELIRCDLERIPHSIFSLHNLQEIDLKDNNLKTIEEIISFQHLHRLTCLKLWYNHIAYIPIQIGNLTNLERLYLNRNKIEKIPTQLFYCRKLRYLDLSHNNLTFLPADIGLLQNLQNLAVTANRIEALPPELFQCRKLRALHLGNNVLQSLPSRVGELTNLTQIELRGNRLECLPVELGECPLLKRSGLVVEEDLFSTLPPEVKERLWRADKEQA
MPRIP-DDK fragment aa 213-545 (Q6WCQ1, residues 213-545): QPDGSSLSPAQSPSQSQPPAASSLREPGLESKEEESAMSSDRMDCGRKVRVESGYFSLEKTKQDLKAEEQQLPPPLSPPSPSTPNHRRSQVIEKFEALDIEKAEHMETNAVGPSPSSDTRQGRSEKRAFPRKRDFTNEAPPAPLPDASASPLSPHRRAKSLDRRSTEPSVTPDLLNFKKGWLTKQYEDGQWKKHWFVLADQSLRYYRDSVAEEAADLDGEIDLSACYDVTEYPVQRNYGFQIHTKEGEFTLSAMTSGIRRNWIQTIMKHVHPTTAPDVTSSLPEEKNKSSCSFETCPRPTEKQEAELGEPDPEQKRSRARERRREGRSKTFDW
MPRIP-DDK fragment aa 389-545 (second PH domain) (Q6WCQ1, residues 389-545): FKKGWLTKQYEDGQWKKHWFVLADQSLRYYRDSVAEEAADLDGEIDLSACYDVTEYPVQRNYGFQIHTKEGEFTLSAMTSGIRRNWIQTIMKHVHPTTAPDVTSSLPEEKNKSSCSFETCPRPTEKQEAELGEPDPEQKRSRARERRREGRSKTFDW
UniProt P97434: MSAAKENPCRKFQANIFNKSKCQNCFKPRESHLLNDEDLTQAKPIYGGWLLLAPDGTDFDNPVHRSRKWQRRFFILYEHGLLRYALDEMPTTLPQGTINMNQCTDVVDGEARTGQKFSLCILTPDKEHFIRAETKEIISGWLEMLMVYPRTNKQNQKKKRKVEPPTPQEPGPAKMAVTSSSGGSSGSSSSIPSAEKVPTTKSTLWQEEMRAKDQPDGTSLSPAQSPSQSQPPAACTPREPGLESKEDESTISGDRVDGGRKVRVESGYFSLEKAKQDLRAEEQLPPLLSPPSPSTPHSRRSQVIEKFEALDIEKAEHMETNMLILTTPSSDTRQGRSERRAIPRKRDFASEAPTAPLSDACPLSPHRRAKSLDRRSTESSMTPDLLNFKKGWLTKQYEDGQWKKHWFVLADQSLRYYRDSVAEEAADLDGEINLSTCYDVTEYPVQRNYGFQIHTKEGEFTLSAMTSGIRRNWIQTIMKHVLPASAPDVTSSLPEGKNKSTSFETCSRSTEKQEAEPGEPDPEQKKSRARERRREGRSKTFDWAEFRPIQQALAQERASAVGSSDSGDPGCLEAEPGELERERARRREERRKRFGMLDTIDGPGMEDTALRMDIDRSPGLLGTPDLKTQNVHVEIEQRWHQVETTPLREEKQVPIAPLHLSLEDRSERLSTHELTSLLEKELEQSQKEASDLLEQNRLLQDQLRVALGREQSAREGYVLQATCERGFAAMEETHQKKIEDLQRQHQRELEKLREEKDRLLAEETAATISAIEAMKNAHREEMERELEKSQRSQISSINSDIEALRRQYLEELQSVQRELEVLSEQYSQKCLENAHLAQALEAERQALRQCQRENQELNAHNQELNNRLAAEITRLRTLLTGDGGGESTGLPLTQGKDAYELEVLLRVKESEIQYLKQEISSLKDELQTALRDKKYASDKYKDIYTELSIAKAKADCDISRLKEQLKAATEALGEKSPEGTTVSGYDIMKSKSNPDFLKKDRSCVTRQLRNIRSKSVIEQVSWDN

Assays:
[1] = biological target: full length myc-tagged LRRC8A (UniProt Q8IWT6); test: co-IP
[2] = biological target: LRRC8A (endogenous, vascular smooth muscle cells) (mouse (endogenous in VSMCs)) (UniProt Q80WG5); test: co-IP
[3] = biological target: LRRC8A (endogenous, vascular smooth muscle cells) (mouse (endogenous in VSMCs)) (UniProt Q80WG5); test: proximity ligation

binding [1]	binding [2]	binding [3]	Substance
binds	–	–	MPRIP-DDK fragment aa 213-545 (from UniProt Q6WCQ1-2 213-545) (domain or fragment)
binds	–	–	MPRIP-DDK fragment aa 389-545 (second PH domain) (from UniProt Q6WCQ1-2 389-545) (domain or fragment)
–	binds	binds	Myosin Phosphatase Rho-Interacting Protein (MPRIP), endogenous in vascular smooth muscle cells (from UniProt P97434 1-1024)
